Results published in PubChem BioAssay AID493014 (National Center for Advancing Translational Sciences (NCATS), 2011).
The other results are listed elsewhere or left out. These are further read-outs of the screen, such as a control signal, another cell line or another target. No call is given for them. The list favours compounds with an active or inconclusive main result. Words in brackets tell the shape of the fitted curve; partial curves, single points and poor fits give uncertain potencies.

Assay: qHTS Assay to Find Inhibitors of Chronic Active B-Cell Receptor Signaling
Conditions: ABC-DLBCL IkBa-CBG/CBR reporter, luminescence ratio (green luciferase fused to IkBa over red control in TMD8 lymphoma cells), 4 h
How it was run: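 TMD8 human ABC-DLBCL cells with doxycycline-inducible IκBα–green luciferase fusion and unfused red luciferase, in 0.5% FBS medium; compounds up to 46 uM, 4 h at 37C. Green/red luminescence ratio, filter-overlap corrected, fitted to concentration-response curves.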

[1] = measured here: CBR red luminescence, cell number

For `Cc1ccc(C(=O)O)cc1-n1c(C)cc(C=O)c1C`, the AC50 [1] was 5.01 µM [rising, partial curve, poor fit].
For `CCn1c(=S)[nH]c2cc(C(=O)OC)ccc2c1=O`, the AC50 [1] was 23.1 µM [falling, single point].
In the case of `OCCNCCCOc1ccc(Cl)cc1Br`, the AC50 [1] is reported as 35.5 µM [falling, single point].
For `CCCCc1ccc(-c2ccc(C)cc2O)nc1`, the AC50 [1] was 0.794 µM [rising, full curve].
For `O=C(NN=C1CCCCCCC1)c1ccccn1`, the AC50 [1] was 35.5 µM [falling, single point].
With `O=C(NCC1CC1)c1ccc(Oc2cc(Cl)cc(Cl)c2)o1` the AC50 [1] was 3.55 µM [falling, full curve, poor fit].
In the case of `CCOCCCn1c(=NC(C)=O)c(C#N)cc2c(=O)n3cccc(C)c3nc21`, the AC50 [1] is reported as 7.08 µM [falling, full curve].
With `CCOC(=O)[C@H]1[C@H]2COc3ccc(Cl)cc3[C@@H]2N2C(=O)c3ccc(F)cc3NC(=O)[C@@]12C` the AC50 [1] was 20.6 µM [falling, partial curve] and the AC50 (measured here: IkBa-CBG green luminescence) was 32.6 µM [rising, partial curve, poor fit].
With `COc1c(Cl)cc(Cl)cc1C(=O)Nc1ccc(NC(=O)c2cccs2)cc1` the AC50 [1] was 3.16 µM [rising, partial curve, poor fit].
In the case of `CN(C)S(=O)(=O)c1cc(NC(=O)CN2C(=O)NC3(CCCc4ccccc43)C2=O)ccc1Cl` (stereo unspecified), the AC50 [1] is reported as 20.6 µM [falling, single point].
In the case of `CNc1nc(Cl)nc(NC(C)(C)C)n1`, the AC50 [1] is reported as 25.1 µM [rising, single point].
In the case of `CN(C(=O)c1ccc(Cl)c([N+](=O)[O-])c1)C1(C)CCS(=O)(=O)C1` (stereo unspecified), the AC50 [1] is reported as 14.6 µM [falling, partial curve, poor fit].
With `N=c1c2c(-c3ccccc3)c(-c3ccccc3)oc2ncn1Cc1ccco1` the AC50 [1] was 17.8 µM [falling, single point].
With `O=C(O)c1cc(C(=O)C2CCCCC2)c[nH]1` the AC50 [1] was 8.91 µM [falling, partial curve].
With `Cc1ccc(NC(=O)CCl)c(C)c1` the AC50 [1] was 5.62 µM [falling, partial curve, poor fit].
For `Cc1ccc(-c2cc(C(=O)NCCc3ccccc3)c3ccccc3n2)cc1C`, the AC50 [1] was 3.98 µM [rising, full curve].
In the case of `O=[N+]([O-])c1ccc2c(c1)c(-c1ccccc1)nc1nncn12`, the AC50 [1] is reported as 20 µM [falling, single point].
In the case of `CCCNS(=O)(=O)c1ccc(CCC(=O)N2CCCC2)cc1`, the AC50 [1] is reported as 11.2 µM [rising, partial curve, poor fit].
With `Nc1nonc1-n1nnc(C(=O)N/N=C/c2cc(Br)cs2)c1-c1ccccc1` the AC50 [1] was 2.24 µM [falling, partial curve, poor fit].
In the case of `COc1ccc(/C=C/C(=O)N2CCN(S(=O)(=O)c3ccccc3Br)CC2)cc1OC`, the AC50 [1] is reported as 7.31 µM [falling, partial curve, poor fit].
With `CCn1c(CNc2ccc(F)cc2)nnc1SCC(=O)Nc1ccc(OC)cc1OC` the AC50 [1] was 11.2 µM [falling, partial curve, poor fit].
With `COCc1cc(=O)n2c(-c3ccc(C)cc3)n[nH]c2n1` the AC50 [1] was 8.2 µM [falling, partial curve].
With `CC(=O)c1cnc2cc(-c3ccc(C)cc3)nn2c1C` the AC50 [1] was 5.17 µM [rising, full curve, poor fit].
With `CCOc1ccccc1Nc1sc(C(=O)c2ccc(Cl)cc2)c(N)c1C#N` the AC50 [1] was 3.16 µM [rising, partial curve].
With `COc1ccccc1NC(=S)NC(NC(=O)c1ccco1)C(Cl)(Cl)Cl` (stereo unspecified) the AC50 [1] was 25.9 µM [falling, partial curve, poor fit].
In the case of `Cc1ccc(C(=O)NC=C(Cl)Cl)cc1`, the AC50 [1] is reported as 23.1 µM [rising, partial curve, poor fit].
With `COc1cccc(C2C(C(C)=O)=C(O)C(=O)N2CCc2c[nH]c3ccccc23)c1` (stereo unspecified) the AC50 [1] was 1.12 µM [rising, full curve, poor fit].
For `CC(NC(=O)Nc1ncccn1)(C(F)(F)F)C(F)(F)F`, the AC50 [1] was 2.59 µM [rising, full curve, poor fit].
For `COc1ccc(C(=O)NNC(=O)C(Cc2ccc(O)cc2)NC(=O)c2ccccc2NC(=O)c2ccc(OC)cc2)cc1` (stereo unspecified), the AC50 [1] was 18.4 µM [rising, partial curve, poor fit].
In the case of `CCCN(S(=O)(=O)c1ccc(OCC)cc1)S(=O)(=O)c1cccs1`, the AC50 [1] is reported as 4.11 µM [rising, full curve, poor fit].
In the case of `CSc1ccc(CN(C)C(=O)C2CCN(C(=O)Nc3ccccc3)CC2)cc1`, the AC50 [1] is reported as 25.9 µM [falling, partial curve].
For `CCN(C(=O)COC(=O)Cc1cccc2ccccc12)C1CCS(=O)(=O)C1` (stereo unspecified), the AC50 [1] was 20.6 µM [rising, single point].
With `O=C(NCc1ccc(F)cc1)C1CCN(S(=O)(=O)c2ccc3c(c2)OCCCO3)CC1` the AC50 [1] was 2.91 µM [rising, full curve, poor fit].
For `NC(=S)NN=C1c2cc(OCCN3CCOCC3)ccc2-c2ccc(OCCN3CCOCC3)cc21`, the AC50 [1] was 5.62 µM [falling, full curve].
With `C/C(N)=C(/C#N)C(=O)COC(=O)CCSc1ccccc1` the AC50 [1] was 1.84 µM [falling, partial curve, poor fit].
For `COc1ccc2[nH]c(=O)c(CN(Cc3ccccc3OC)Cc3nnnn3CC3CCCO3)cc2c1` (stereo unspecified), the AC50 [1] was 35.5 µM [falling, single point].
With `CCCC1S/C(=N/N=C/c2ccc(C)cc2)N(Cc2ccc(OC)cc2)C1=O` (stereo unspecified) the AC50 [1] was 0.00651 µM [rising, full curve, poor fit].
For `Cc1cc(C)n2nc(C(=O)Nc3c(C)nn(Cc4ccc(F)cc4)c3C)cc2n1`, the AC50 [1] was 3.16 µM [rising, partial curve, poor fit].
In the case of `Cc1onc(-c2c(Cl)cccc2Cl)c1C(=O)NC1C(=O)N2C1SC(C)(C)C2C(=O)O` (stereo unspecified), the AC50 [1] is reported as 35.5 µM [falling, single point].
For `COc1ccccc1N1CCN(C(=O)CCNS(=O)(=O)c2cc(Br)cnc2N)CC1`, the AC50 [1] was 35.5 µM [falling, single point].
